Reference: patent US12084708B1, “Acoustic wave resonator with active shunt capacitance cancellation and systems thereof” (National Technology & Engineering Solutions of Sandia, LLC, priority 2019, dated 2024)
Entries after “also recorded” stand apart in the source; their conditions may differ. For at least one compound, name, drawing or mass did not settle the structure.

System: E. coli TOP10
Assay: 36YLT SH-LSAW acoustic resonator assay with ASCCO circuit (frequency shift)
Type: cell-based
Settings: in the presence of kanamycin; E. coli 10^8 cells/ml; growth/absorbing based assay

NC[C@H]1O[C@H](O[C@H]2[C@H](O)[C@@H](O[C@H]3O[C@H](CO)[C@@H](O)[C@H](N)[C@H]3O)[C@H](N)C[C@@H]2N)[C@H](O)[C@@H](O)[C@@H]1O [kanamycin]
adherence / adsorption of E. coli to the sensor: not able to adhere; also recorded: inhibited
